Part of at least one peptide drawing is inferred or uncertain, most often the ends.
Test system: adenohypophysis of female Sprague-Dawley rats (cell cultures), LH-hormone released from the cells
Details: relative LH-releasing activity versus GnRH, from ED50 values

Structure (SMILES): CCNC(=O)[C@@H]1CCCN1C(=O)[C@H](CCCNC(=N)N)NC(=O)[C@H](CC(C)C)NC(=O)[C@@H](Cc1ccc(Cl)cc1)NC(=O)[C@H](Cc1ccc(O)cc1)NC(=O)[C@H](CO)NC(=O)[C@H](Cc1c[nH]c2ccccc12)NC(=O)[C@H](Cc1c[nH]cn1)NC(=O)[C@@H]1CCC(=O)N1 [D-Cpa^6 -GnRH-EA]
- relative activity (GnRH = 1.00): 26.9

Structure (SMILES): CC(C)C[C@H](NC(=O)[C@@H](Cc1ccc(Oc2ccc(O)cc2)cc1)NC(=O)[C@H](Cc1ccc(O)cc1)NC(=O)[C@H](CO)NC(=O)[C@H](Cc1c[nH]c2ccccc12)NC(=O)[C@H](Cc1c[nH]cn1)NC(=O)[C@@H]1CCC(=O)N1)C(=O)N[C@@H](CCCNC(=N)N)C(=O)N1CCC[C@H]1C(=O)NCC(N)=O [D-Thy^6 -GnRH]
- relative activity (GnRH = 1.00): 14.1

Source: patent publication US4552864A, “Gonadoliberin derivatives process for the preparation and pharmaceutical compositions thereof” (Reanal Finomvegyszergyar, priority 1982, dated 1985)
